PubChem BioAssay AID1671195 | Yale University, 2021

- Aim: 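Regulators of LDL receptor activity judged by labelled LDL uptake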 (primary screen)
- Cells: human Huh7 hepatoma cells
- Reagent: siRNA pool against human genes, 18 nM
- Time to read-out: about 2 to 2.5 days of knockdown, then 8 h LDL uptake
- Challenge: DiI-labelled LDL at 30 µg/ml for 8 h, in lipoprotein-deficient serum medium
- Read-out: 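Per-cell DiI-LDL intensity by automated imaging; well means scaled to the plate median and given as a robust z-score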
- Reading the numbers: robust z-score: higher = more LDL uptake after knockdown
- Active means: 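a gene counts as active if at least two replicate z-scores exceed ±2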
The deposit covers about 22,000 reagents; shown is a random part of them. About 1,510 of all reagents (6.9%) count as active. 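Active includes knockdowns raising or lowering LDL uptake; positive z-scores mean more uptake, negative mean less.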 Reagent sequences are not shown.

PIF1
- robust z-score, replicate 1: -0.949
- robust z-score, replicate 2: -1.51
- robust z-score, replicate 3: -1.55
- outcome: inactive

MIEF2
- robust z-score, replicate 1: -1.19
- robust z-score, replicate 2: -0.805
- robust z-score, replicate 3: -0.823
- outcome: inactive

LOC440008 (retired record)
- robust z-score, replicate 1: -0.522
- robust z-score, replicate 2: -0.0427
- robust z-score, replicate 3: -0.685
- outcome: inactive

MAGEF1
- robust z-score, replicate 1: -0.741
- robust z-score, replicate 2: -0.0221
- robust z-score, replicate 3: -0.187
- outcome: inactive

SPIRE2
- robust z-score, replicate 1: -0.357
- robust z-score, replicate 2: -0.428
- robust z-score, replicate 3: 0.0223
- outcome: inactive

EPC2
- robust z-score, replicate 1: -1.24
- robust z-score, replicate 2: -0.469
- robust z-score, replicate 3: -1.17
- outcome: inactive

2 consecutive reagents from above, quoted:
MIEF2
- robust z-score, replicate 1: -1.19
- robust z-score, replicate 2: -0.805
- robust z-score, replicate 3: -0.823
- outcome: inactive

LOC440008 (retired record)
- robust z-score, replicate 1: -0.522
- robust z-score, replicate 2: -0.0427
- robust z-score, replicate 3: -0.685
- outcome: inactive

Further reagents follow:
RHOG
- robust z-score, replicate 1: -0.0843
- robust z-score, replicate 2: -0.781
- robust z-score, replicate 3: 0.736
- outcome: inactive

BAMBI
- robust z-score, replicate 1: 0.29
- robust z-score, replicate 2: -1.58
- robust z-score, replicate 3: 0.138
- outcome: inactive

RPS6P1
- robust z-score, replicate 1: 0.34
- robust z-score, replicate 2: 0.121
- robust z-score, replicate 3: 0.291
- outcome: inactive

TMPRSS13
- robust z-score, replicate 1: 0.726
- robust z-score, replicate 2: 1.3
- robust z-score, replicate 3: 0.764
- outcome: inactive

VANGL1
- robust z-score, replicate 1: 0.0739
- robust z-score, replicate 2: -0.187
- robust z-score, replicate 3: -0.217
- outcome: inactive

YWHAB
- robust z-score, replicate 1: -0.964
- robust z-score, replicate 2: -1.35
- robust z-score, replicate 3: -1.06
- outcome: inactive
